Experimental data from patent publication US20060052582A1, “Identification of inhibitors of mitosis” (priority 2002, published 2006).
No constants are given. Whether binding was seen depends on the method and setting. Binding seen in cells or lysates may run through a third protein. Some entries that bind do so weakly or less than the wild type. Sequences can lack the tags named with a protein.

What was measured:
GST Nek6 (human) [1] = experiment: GSH-agarose pull-down from co-transfected 293 cells, anti-FLAG blot
GST Nek6 (human) [2] = experiment: GSH-agarose pull-down from co-transfected HEK293 cells (figure legend)
[3] = biological target: GST Nercc (891-940) (human); experiment: GST-agarose pull-down from co-transfected HEK293 cells, anti-FLAG blot

- binding (GST Nek6 (human) [1]): binds
- binding (GST Nek6 (human) [2]): binds
- binding [3]: binds
B1: FLAG Nercc (full-length wild type Nercc1 kinase with FLAG epitope tag) (enzyme)
chain: MDYKDDDDKMSVLGEYERHCDSINSDFGSESGGCGDSSPGPSASQGPRAGGGAAEQEELHYIPIRVLGRGAFGEATLYRRTEDDSLVVWKEVDLTRLSEKERRDALNEIVILALLQHDNIIAYYNHFMDNTTLLIELEYCNGGNLYDKILRQKDKLFEEEMVVWYLFQIVSAVSCIHKAGILHRDIKTLNIFLTKANLIKLGDYGLAKKLNSEYSMAETLVGTPYYMSPELCQGVKYNFKSDIWAVGCVIFELLTLKRTFDATNPLNLCVKIVQGIRAMEVDSSQYSLELIQMVHSCLDQDPEQRPTADELLDRPLLRKRRREMEEKVTLLNAPTKRPRSSTVTEAPIAVVTSRTSEVYIWGGGKSTPQKLDVIKSGCSARQVCAGNTHFAVVTVEKELYTWVNMQGGTKLHGQLGHGDKASYRQPKHVEKLQGKAIHQVSCGDDFTVCVTDEGQLYAFGSDYYGCMGVDKVAGPEVLEPMQLNFFLSNPVEQVSCGDNHVVVLTRNKEVYSWGCGEYGRLGLDSEEDYYTPQKVDVPKALIIVAVQCGCDGTFLLTQSGKVLACGLNEFNKLGLNQCMSGIINHEAYHEVPYTTSFTLAKQLSFYKIRTIAPGKTHTAAIDERGRLLTFGCNKCGQLGVGNYKKRLGINLLGGPLGGKQVIRVSCGDEFTIAATDDNHIFAWGNGGNGRLAMTPTERPHGSDICTSWPRPIFGSLHHVPDLSCRGWHTILIVEKVLNSKTIRSNSSGLSIGTVFQSSSPGGGGGGGGGEEEDSQQESETPDPSGGFRGTMEADRGMEGLISPTEAMGNSNGASSSCPGWLRKELENAEFIPMPDSPSPLSAAFSESEKDTLPYEELQGLKVASEAPLEHKPQVEASSPRLNPAVTCAGKGTPLTPPACACSSLQVEVERLQGLVLKCLAEQQKLQQENLQIFTQLQKLNKKLEGGQQVGMHSKGTQTAKEEMEMDPKPDLDSDSGCLLGTDSCRPSL
